Publication PMC3818382

By UniProt entry, the sequences of proteins in these tests, tags left out. Where a name states a change or a piece, a line headed by the entry shows the natural chain unless it says otherwise.
UniProt P16220: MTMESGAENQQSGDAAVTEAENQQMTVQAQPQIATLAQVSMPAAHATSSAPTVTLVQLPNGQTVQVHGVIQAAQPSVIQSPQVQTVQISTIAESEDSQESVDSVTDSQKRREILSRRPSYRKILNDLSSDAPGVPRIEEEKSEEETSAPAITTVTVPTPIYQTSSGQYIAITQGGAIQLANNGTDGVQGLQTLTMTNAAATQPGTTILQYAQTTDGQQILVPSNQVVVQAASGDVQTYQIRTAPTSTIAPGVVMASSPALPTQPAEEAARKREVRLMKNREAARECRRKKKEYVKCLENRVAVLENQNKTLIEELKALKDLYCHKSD

Key:
ATF-2 (CRE-BP1) [1] = biological target: T1, ATF-2 (CRE-BP1) (UniProt P15336); test: EMSA with ATF-2 antibody (signal diminished) and ATF-2 siRNA; details: DLD-1 nuclear extract, siRNA slightly decreased the complex; 100 fmol biotinylated dsDNA probe, 5 ug nuclear extract, 1 ug poly d(I)-d(C), 30 min; 50-fold competitor; 6% polyacrylamide gel; protein in an extract; label: biotin (labelled probe), unlabelled as competitor
T1 sequence (looked up, limits assumed): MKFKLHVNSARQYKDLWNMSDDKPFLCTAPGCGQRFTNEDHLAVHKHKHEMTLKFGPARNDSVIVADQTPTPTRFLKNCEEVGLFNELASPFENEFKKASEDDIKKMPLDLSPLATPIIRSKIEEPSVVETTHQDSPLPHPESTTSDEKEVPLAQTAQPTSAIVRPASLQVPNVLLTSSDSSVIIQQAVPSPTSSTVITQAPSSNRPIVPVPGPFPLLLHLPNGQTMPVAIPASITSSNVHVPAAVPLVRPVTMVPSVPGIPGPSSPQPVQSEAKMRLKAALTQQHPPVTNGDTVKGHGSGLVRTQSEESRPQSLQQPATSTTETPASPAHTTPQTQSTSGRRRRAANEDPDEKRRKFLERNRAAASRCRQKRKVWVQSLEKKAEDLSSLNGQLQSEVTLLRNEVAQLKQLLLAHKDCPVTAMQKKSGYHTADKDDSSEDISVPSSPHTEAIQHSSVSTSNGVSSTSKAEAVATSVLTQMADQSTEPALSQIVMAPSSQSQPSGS

CREB1 [2] = biological target: CREB1 (UniProt P16220); test: EMSA with CREB1 antibody (signal diminished) and CREB1 siRNA; details: DLD-1 nuclear extract, siRNA nearly abolished the complex; 100 fmol biotinylated dsDNA probe, 5 ug nuclear extract, 1 ug poly d(I)-d(C), 30 min; 50-fold competitor; 6% polyacrylamide gel; protein in an extract; label: biotin (labelled probe), unlabelled as competitor
ATF-2 (CRE-BP1) [3] = biological target: T1, ATF-2 (CRE-BP1); test: competition with a labelled probe; details: DLD-1 nuclear extract, 100 fmol biotinylated dsDNA probe, 5 ug nuclear extract, 1 ug poly d(I)-d(C), 30 min, 50-fold competitor, 6% polyacrylamide gel, protein in an extract, label: none (unlabelled competitor)
CREB1 [4] = biological target: CREB1 (UniProt P16220); test: competition with a labelled probe; details: 50-fold excess did not inhibit complex on DMBT1 A probe, DLD-1 nuclear extract; 100 fmol biotinylated dsDNA probe, 5 ug nuclear extract, 1 ug poly d(I)-d(C), 30 min; 50-fold competitor; 6% polyacrylamide gel; protein in an extract; label: none (unlabelled competitor)
ATF-2 (CRE-BP1) [5] = biological target: T1, ATF-2 (CRE-BP1); test: EMSA, competition; details: nuclear extract, labelled G probe clearly weaker, 50-fold unlabelled G competes less than A; 100 fmol biotinylated dsDNA probe, 5 ug nuclear extract, 1 ug poly d(I)-d(C), 30 min; 50-fold competitor; 6% polyacrylamide gel; protein in an extract; label: biotin (labelled probe), unlabelled as competitor
CREB1 [6] = biological target: CREB1 (UniProt P16220); test: EMSA, competition; details: nuclear extract, labelled G probe clearly weaker, 50-fold unlabelled G competes less than A; 100 fmol biotinylated dsDNA probe, 5 ug nuclear extract, 1 ug poly d(I)-d(C), 30 min; 50-fold competitor; 6% polyacrylamide gel; protein in an extract; label: biotin (labelled probe), unlabelled as competitor
CREB1 [7] = biological target: CREB1 (UniProt P16220); test: EMSA with CREB1 antibody (inhibits complex); details: nuclear extract, also competed by unlabelled CREB1 and DMBT1 probes; 100 fmol biotinylated dsDNA probe, 5 ug nuclear extract, 1 ug poly d(I)-d(C), 30 min; 50-fold competitor; 6% polyacrylamide gel; protein in an extract; label: biotin (labelled probe), unlabelled as competitor

CCTGCTAACGTAACCAAATTGCTA (double strand) [DMBT1 probe rs2981804 A (risk allele)]
binding result (ATF-2 (CRE-BP1) [1]): binds
binding result (CREB1 [2]): binds

CTTAGTTACGTAATAATTGT (double strand) [ATF-2 probe]
binding result (ATF-2 (CRE-BP1) [3]; 50-fold excess reduced complex on DMBT1 A probe): binds

GATCCTTCTGGGCCGTCCTAGATC (double strand) [unspecific competitor probe]
binding result (ATF-2 (CRE-BP1) [3]; 50-fold excess did not inhibit complex on DMBT1 A probe): no binding
binding result (CREB1 [4]): no binding

CCTGCTAACGTAGCCAAATTGCTA (double strand) [DMBT1 probe rs2981804 G (protective allele)]
binding result (ATF-2 (CRE-BP1) [5]): binds more weakly
binding result (CREB1 [6]): binds more weakly

AGAGATTGCCTGACGTCAGAGAGCTAG (double strand) [CREB1 consensus probe]
binding result (CREB1 [7]): binds

The exact form of at least one protein or probe is not confirmed. At least one result comes from cells or an extract, where the contact may be indirect. For some assays here: A negative result means that nothing was seen under these conditions. For some assays here: At least one verdict rests on a figure or table, not on a statement of the authors. For some assays here: Where a protein sequence is shown, tags need not be part of it. For some assays here: Weaker means in comparison with the reference protein, sequence or condition of that experiment.
